These are yes or no findings as the source states them, for the method shown. In cells and extracts the contact can be indirect. Some results given as binding are weak or reduced against the parent protein; the word gives no strength. Values belong to the substance of their own block, whether it stands above or below them.
Columns and labels:
[1] = biological target: WD40-repeat protein 79 (WDR79), endogenous (human (endogenous in T-REx 293)) (UniProt Q9BUR4); test: co-IP; serial two-step pull-down from DAP-TDP-43-expressing T-REx 293 cells (doxycycline 24 h): first with anti-FLAG (DAP-TDP-43), then with anti-WDR79; immunoblot with anti-WDR79 or streptavidin-HRP
[2] = biological target: DAP (His6-, biotin- and FLAG-tagged)-TDP-43, wild type (UniProt Q13148); test: co-IP; DAP-TDP-43 or its deletion mutants as affinity bait, captured on FLAG M2 agarose from extracts of doxycycline-induced T-REx 293 cells (67 mM Tris-HCl pH 7.4, 200 mM NaCl, 0.1% IGEPAL CA-630, 4°C); WDR79 by immunoblot; the paper calls it a pull-down; 'independently of RNA'
[3] = biological target: HEF (HA, TEV cleavage site and FLAG)-tagged WDR79 (human (cDNA derived from 293T cells)) (UniProt Q9BUR4); test: co-IP; HEF-WDR79 as affinity bait, anti-FLAG (FLAG M2 agarose) from extracts of doxycycline-induced T-REx 293 cells (67 mM Tris-HCl pH 7.4, 200 mM NaCl, 0.1% IGEPAL CA-630, 4°C); TDP-43 by immunoblot; also after ncRNA or TDP-43 siRNA for 72 h (Figure 5B)
[4] = biological target: WD40-repeat protein 79 (WDR79), endogenous (human (endogenous in T-REx 293)) (UniProt Q9BUR4); test: co-IP; reciprocal pull-down with endogenous WDR79 as affinity bait; TDP-43 by immunoblot (Supplementary Figure S4C)

Chains of the proteins cited; added tags and fusions are not shown.
UniProt Q9BUR4: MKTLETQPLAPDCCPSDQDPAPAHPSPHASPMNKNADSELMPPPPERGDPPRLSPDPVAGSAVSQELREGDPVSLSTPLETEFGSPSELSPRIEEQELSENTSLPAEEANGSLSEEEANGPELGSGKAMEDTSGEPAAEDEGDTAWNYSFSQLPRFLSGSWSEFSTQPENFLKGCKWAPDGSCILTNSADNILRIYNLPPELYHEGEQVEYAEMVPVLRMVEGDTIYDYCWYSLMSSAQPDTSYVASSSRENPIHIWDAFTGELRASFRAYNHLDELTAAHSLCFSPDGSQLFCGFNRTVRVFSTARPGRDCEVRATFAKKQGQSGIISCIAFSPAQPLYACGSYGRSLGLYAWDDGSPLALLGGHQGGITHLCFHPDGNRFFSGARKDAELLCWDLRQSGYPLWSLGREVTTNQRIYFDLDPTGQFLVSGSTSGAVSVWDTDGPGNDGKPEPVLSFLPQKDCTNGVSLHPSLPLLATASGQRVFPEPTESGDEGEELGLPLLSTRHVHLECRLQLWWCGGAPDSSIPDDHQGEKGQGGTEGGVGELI
UniProt Q13148: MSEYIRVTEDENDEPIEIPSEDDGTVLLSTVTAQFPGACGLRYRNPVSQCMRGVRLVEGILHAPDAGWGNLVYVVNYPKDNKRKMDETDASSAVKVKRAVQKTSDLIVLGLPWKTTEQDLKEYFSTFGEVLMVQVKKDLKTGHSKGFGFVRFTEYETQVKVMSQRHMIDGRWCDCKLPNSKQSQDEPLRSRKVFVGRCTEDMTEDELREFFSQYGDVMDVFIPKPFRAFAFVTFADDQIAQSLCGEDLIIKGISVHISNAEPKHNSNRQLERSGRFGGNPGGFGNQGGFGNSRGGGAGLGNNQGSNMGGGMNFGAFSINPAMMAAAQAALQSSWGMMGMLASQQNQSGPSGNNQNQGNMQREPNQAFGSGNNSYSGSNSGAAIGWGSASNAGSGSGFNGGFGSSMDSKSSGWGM

- binding [1]: binds
Substance: DAP (His6-, biotin- and FLAG-tagged)-TDP-43, wild type (from UniProt Q13148 1-414)

- binding [2]: binds
Substance: WD40-repeat protein 79 (WDR79), endogenous (from UniProt Q9BUR4 1-548)

- binding [3]: binds
- binding [4]: binds
Substance: TDP-43, endogenous (from UniProt Q13148 1-414)

Reference: PMC6412121
